Measurements published in doi:10.1101/2021.12.22.473884.
Where a chain is given by its changes, count along the chain named. No constants are given. Whether binding was seen depends on the method and setting. Binding seen in cells or lysates may run through a third protein. Some entries that bind do so weakly or less than the wild type. Where a sequence is shown, tags or fusion partners need not be part of it.

How the values were obtained:
Assay in all cases: co-IP
[1] = target: T1, Flag-Fbxo7 WT (human) (UniProt Q9Y3I1)
T1 sequence: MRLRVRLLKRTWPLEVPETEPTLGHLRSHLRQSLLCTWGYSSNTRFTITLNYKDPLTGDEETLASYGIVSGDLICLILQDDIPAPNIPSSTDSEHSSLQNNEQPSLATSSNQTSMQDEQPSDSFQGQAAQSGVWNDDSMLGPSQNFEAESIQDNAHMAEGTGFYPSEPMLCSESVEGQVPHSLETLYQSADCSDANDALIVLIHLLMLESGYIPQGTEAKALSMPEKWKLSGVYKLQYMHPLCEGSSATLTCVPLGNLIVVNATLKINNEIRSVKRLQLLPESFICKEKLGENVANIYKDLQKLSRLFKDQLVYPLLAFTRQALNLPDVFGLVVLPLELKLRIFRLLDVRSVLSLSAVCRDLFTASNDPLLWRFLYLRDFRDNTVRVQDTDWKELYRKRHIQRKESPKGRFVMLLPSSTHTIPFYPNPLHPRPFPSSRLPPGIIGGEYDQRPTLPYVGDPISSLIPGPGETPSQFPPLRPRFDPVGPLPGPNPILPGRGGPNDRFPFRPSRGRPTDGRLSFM

[2] = target: T2, Flag-Fbxo7 L250P (human) (UniProt Q9Y3I1)
T2 sequence: T1 sequence with L250P

[3] = target: T3, FLAG-tagged WT PI31 (UniProt Q92530)
T3 sequence: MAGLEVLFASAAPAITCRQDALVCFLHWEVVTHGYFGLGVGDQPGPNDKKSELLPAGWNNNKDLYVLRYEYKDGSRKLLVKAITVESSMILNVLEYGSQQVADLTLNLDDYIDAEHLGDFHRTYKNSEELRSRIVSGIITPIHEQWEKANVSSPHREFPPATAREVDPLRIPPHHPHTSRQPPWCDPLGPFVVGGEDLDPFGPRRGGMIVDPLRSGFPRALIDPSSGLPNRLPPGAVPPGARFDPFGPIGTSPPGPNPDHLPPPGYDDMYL

[4] = target: T4, FLAG-tagged PI31ΔC (aa1-189) (UniProt Q92530)
T4 sequence: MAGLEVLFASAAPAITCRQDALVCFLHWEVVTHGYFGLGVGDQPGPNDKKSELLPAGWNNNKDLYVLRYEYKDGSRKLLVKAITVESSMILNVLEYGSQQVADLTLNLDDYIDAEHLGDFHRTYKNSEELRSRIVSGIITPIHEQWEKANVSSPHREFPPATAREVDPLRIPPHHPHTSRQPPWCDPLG

[5] = target: T5, Fbxo7 T22M (human) (UniProt Q9Y3I1)
T5 sequence: T1 sequence with T22M

[6] = target: T6, FLAG-Fbxo7 (aa169-398) (human) (UniProt Q9Y3I1)
T6 sequence: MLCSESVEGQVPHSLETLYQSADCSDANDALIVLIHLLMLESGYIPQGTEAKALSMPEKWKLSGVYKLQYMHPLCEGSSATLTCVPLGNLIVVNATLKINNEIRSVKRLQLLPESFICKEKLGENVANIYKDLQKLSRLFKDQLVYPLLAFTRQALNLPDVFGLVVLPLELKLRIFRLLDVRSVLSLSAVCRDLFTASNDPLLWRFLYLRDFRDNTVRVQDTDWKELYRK

Measured: binding

B1: MiD49-Myc (protein, UniProt Q96C03 1-454)
chain: MAEFSQKRGKRRSDEGLGSMVDFLLANARLVLGVGGAAVLGIATLAVKRFIDRATSPRDEDDTKADSWKELSLLKATPHLQPRPPPAALSQPVLPLAPSSSAPEGPAETDPEVTPQLSSPAPLCLTLQERLLAFERDRVTIPAAQVALAKQLAGDIALELQAYFRSKFPELPFGAFVPGGPLYDGLQAGAADHVRLLVPLVLEPGLWSLVPGVDTVARDPRCWAVRRTQLEFCPRGSSPWDRFLVGGYLSSRVLLELLRKALAASVNWPAIGSLLGCLIRPSMASEELLLEVQHERLELTVAVLVAVPGVDADDRLLLAWPLEGLAGNLWLQDLYPVEAARLRALDDHDAGTRRRLLLLLCAVCRGCSALGQLGRGHLTQVVLRLGEDNVDWTEEALGERFLQALELLIGSLEQASLPCHFNPSVNLFSSLREEEIDDIGYALYSGLQEPEGLL
binds: all assays above
